Here are results for one substance from PMC5486089.

These are yes or no findings as the source states them, for the method shown. In cells and extracts the contact can be indirect. Binding can be weak; no strength is given. Sequences can lack the tags named with a protein.

This test concerns the target T1, GFP-Cep70 (centrosomal protein 70) (UniProt Q8NHQ1).
T1 sequence: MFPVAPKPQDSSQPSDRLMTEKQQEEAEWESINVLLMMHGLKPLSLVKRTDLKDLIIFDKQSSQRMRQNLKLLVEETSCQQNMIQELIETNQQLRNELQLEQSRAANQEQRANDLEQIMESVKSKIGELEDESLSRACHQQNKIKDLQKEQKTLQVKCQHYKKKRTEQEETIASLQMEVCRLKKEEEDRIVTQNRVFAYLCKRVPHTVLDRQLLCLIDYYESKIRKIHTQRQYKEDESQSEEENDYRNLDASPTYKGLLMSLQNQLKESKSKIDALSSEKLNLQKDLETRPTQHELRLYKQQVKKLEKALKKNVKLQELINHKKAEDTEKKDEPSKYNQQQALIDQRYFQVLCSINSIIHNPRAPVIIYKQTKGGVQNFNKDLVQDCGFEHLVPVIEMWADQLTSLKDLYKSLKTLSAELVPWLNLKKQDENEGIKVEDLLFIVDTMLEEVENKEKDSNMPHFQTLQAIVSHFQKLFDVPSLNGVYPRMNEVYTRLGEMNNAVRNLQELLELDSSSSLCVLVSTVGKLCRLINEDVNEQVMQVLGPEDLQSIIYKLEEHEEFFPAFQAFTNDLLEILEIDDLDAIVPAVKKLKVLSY
The experiment in a line: co-IP; GFP-Cep70 or GFP transfected into 293T cells; lysates incubated with anti-GFP antibody-conjugated agarose beads at 4 °C overnight, washed with RIPA lysis buffer; immunoblot with anti-tubulin or anti-GFP antibodies.

Turning to tubulin (human (endogenous in 293T)), the binding entry is on record as “binds”.
